Test results: patent publication US6890933B1, “Kinesin inhibitors” (President and Fellows of Harvard College, priority 2000, dated 2005)
At least one structure is not confirmed: it was looked up by name or label, or the drawing left a doubt.

Tests used:
[1] = target: T1, mitotic kinesin Eg5 (Xenopus laevis, UniProt P28025); details: in vitro; Mayer et al. 1999; cited from earlier work
T1 sequence (P28025 1-1067): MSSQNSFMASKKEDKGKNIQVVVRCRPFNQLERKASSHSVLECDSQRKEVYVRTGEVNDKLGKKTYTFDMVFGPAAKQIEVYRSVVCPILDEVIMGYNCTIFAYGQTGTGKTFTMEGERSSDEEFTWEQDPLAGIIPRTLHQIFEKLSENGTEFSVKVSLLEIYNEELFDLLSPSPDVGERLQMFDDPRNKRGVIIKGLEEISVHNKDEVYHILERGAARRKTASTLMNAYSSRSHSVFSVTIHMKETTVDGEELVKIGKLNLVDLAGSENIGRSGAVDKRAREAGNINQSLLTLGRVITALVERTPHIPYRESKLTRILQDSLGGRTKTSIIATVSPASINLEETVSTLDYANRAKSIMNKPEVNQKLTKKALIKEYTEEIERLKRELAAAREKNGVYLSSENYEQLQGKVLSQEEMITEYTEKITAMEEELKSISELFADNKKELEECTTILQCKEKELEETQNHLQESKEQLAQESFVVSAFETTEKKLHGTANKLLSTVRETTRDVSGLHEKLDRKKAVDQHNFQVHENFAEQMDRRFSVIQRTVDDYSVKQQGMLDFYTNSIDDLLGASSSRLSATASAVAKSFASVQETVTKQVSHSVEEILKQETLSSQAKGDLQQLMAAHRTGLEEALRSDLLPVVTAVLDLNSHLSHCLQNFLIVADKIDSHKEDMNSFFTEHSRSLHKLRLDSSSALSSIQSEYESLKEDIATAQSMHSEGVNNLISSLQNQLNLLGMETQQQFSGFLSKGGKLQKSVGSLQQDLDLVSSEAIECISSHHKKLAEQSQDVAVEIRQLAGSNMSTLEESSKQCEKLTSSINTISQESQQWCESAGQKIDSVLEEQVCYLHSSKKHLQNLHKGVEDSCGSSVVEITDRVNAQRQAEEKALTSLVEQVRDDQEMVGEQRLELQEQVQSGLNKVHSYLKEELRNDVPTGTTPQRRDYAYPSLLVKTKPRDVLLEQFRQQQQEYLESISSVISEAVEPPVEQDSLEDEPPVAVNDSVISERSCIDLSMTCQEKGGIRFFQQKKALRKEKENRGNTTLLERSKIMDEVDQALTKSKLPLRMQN

[2] = target: T2, conventional human kinesin (Homo sapiens, UniProt P33176); assay: NADH enzyme coupled ATPase assay with conventional human kinesin (K560); format: biochemical; details: N-terminal 560 amino acids, 6-His tag
T2 construct: human kinesin (N-terminal 560 amino acids of full length protein followed by 6-His tag at C terminus); made in house; host or cells: E. coli BL21 pLysS (DE3) (the purification section covers Eg5-405 and K560)
T2 sequence (P33176 1-560): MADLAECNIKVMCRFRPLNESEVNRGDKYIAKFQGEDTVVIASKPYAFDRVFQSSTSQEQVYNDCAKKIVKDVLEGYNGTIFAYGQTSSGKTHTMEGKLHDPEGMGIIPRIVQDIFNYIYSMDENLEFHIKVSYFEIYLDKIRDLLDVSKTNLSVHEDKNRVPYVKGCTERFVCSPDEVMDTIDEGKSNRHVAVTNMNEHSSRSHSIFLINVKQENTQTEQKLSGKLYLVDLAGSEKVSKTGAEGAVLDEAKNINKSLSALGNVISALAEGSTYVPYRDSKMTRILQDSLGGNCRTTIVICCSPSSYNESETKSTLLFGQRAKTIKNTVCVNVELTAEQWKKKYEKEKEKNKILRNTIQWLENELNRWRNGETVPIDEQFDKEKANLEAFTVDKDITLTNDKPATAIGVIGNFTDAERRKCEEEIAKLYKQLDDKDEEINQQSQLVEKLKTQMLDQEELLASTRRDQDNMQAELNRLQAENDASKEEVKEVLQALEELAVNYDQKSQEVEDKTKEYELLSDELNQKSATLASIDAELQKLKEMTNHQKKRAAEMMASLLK
Description: Since the effect of 22C16 on mono-astral formation in mammalian cells was similar to that of cells treated with monastrol, the ability of 22C16 to inhibit kinesins was examined.
Purification of Eg5-405 and K560 (560 Amino Acid Kinesin Construct):
In vitro NADH Enzyme Coupled A TPase: (variation on Methods Described in Crevel, Lockhart, and Cross. J. Mol. Biol. (1997) 273, 160-170.)
A solution containing the microtubule resuspension buffer was supplemented with 1 mM Mg-ATP, 100 uM nicotinamide adenine dinucleotide (NADH), 1 mM phosphoenol pyruvate, 5 ug/ml pyruvate kinase, 7.5 ug/ml lactate dehydrogenase, 0.7 uM resuspended microtubules, and 0.5% dimethylsulfoxide (DMSO).

[3] = target: conventional kinesin (Homo sapiens, UniProt P33176); details: Mayer et al. 1999; cited from earlier work

Structure (SMILES): CCOC(=O)C1=C(C)NC(=S)NC1c1cccc(O)c1 (stereo not drawn) [monastrol]
- inhibition of motility of Eg5 (in words), literature [1]: specifically inhibited
- inhibition of ATPase activity of conventional human kinesin (in words) [2]: did not inhibit
- inhibition of microtubule motility driven by conventional kinesin (in words), literature [3]: did not inhibit
